{"sequences": {"note": "Chains of the proteins cited; added tags and fusions are not shown.", "UniProt O14965": "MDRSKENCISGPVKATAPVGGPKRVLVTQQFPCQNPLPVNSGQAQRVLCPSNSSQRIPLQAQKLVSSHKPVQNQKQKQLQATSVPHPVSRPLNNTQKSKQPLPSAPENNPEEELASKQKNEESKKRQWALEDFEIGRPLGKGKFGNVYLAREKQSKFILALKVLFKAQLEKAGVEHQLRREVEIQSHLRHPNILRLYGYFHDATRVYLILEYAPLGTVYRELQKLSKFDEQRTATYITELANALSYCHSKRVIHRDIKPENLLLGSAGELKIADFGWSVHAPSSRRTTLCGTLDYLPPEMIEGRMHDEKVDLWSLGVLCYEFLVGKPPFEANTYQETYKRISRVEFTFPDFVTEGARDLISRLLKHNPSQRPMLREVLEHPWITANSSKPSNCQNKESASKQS", "UniProt P06733": "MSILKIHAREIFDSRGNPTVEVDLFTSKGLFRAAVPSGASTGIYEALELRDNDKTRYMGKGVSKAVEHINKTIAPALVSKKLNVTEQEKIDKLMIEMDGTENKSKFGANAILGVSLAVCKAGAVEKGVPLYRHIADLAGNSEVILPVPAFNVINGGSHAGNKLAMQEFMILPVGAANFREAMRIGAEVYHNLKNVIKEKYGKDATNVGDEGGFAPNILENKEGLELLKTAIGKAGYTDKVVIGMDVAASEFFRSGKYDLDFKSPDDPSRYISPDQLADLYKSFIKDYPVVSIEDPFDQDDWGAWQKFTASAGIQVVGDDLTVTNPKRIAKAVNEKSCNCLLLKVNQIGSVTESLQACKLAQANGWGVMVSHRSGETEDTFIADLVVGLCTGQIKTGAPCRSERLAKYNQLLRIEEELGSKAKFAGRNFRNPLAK", "UniProt P18669": "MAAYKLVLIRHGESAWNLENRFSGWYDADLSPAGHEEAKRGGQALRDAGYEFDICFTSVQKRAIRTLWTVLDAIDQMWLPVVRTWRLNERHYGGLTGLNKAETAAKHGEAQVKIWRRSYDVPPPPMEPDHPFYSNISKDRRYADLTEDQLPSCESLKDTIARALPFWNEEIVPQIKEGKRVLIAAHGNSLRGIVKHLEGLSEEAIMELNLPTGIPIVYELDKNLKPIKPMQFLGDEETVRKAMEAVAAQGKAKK", "UniProt P14618": "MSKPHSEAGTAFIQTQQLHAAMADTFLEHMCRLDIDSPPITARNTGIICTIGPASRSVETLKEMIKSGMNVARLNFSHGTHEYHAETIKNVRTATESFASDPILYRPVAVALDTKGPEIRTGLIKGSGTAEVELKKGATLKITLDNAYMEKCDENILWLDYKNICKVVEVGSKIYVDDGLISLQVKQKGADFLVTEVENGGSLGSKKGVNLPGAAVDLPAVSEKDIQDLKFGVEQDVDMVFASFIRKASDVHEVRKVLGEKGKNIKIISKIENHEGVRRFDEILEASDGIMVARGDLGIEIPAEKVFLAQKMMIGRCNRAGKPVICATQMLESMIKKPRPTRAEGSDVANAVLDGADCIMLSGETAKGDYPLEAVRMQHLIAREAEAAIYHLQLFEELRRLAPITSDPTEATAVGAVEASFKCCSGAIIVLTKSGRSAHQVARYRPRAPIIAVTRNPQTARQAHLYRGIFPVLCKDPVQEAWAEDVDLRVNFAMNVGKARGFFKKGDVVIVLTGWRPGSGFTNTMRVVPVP"}, "source": "paper PMC6895051", "note": "Results are given in words; binding and its absence hold for the method and conditions named. Binding seen in cells or lysates may run through a third protein. These calls come from enrichment with a bait or labelling near it, and not all partners need be listed."}
{"molecular_target": "FLAG-tagged Aurora-A (UniProt O14965)", "assay": "affinity purification with mass spectrometry; Flag-Aurora A expressed in 293T and DLD1 cells, isolated by IP, eluted with 200 μg/ml flag peptide, nano LC-MS/MS"}
{"substance": "ENOA (endogenous) (from UniProt P06733 1-434) (enzyme)", "binding": "binds"}
{"substance": "PGAM1 (endogenous) (from UniProt P18669 1-254) (enzyme)", "binding": "binds"}
{"substance": "PKM (endogenous) (from UniProt P14618 1-531) (enzyme)", "binding": "binds"}
